{"source": "patent US7205162B1", "about": "“Artificial antibodies, method of producing the same and use thereof” (priority 1995, dated 2007)", "key": {"[1]": {"assay": "Molecularly Imprinted Sorbent Assay (MIA), competitive binding of 3H-theophylline to anti-theophylline polymer", "conditions": "molar ratio of theophylline to ligand giving 50% inhibition of 3H-theophylline binding to polymer; ligands added to drug free serum"}, "[2]": {"system": "natural antibodies (Ab's) against theophylline", "conditions": "data from ref 22; cited from earlier work"}}, "note": "At least one structure is not confirmed: it was looked up by name or label, or the drawing left a doubt."}
{"smiles": "Cn1c(=O)c2c(ncn2C)n(C)c1=O", "note": "[Caffeine, 1,3,7-trimetylxanthine]", "values": [{"measurement": "Cross-reaction (%) ArtAb, Theophylline antibodies", "setting": "[1]", "value": "<1", "unit": "%"}, {"measurement": "Cross-reaction (%) Ab*, Theophylline antibodies", "setting": "[2]", "value": "<1", "unit": "%"}]}
